{"sequences": {"note": "Amino acid sequences for entries named in this document (tags omitted).", "UniProt O14980": "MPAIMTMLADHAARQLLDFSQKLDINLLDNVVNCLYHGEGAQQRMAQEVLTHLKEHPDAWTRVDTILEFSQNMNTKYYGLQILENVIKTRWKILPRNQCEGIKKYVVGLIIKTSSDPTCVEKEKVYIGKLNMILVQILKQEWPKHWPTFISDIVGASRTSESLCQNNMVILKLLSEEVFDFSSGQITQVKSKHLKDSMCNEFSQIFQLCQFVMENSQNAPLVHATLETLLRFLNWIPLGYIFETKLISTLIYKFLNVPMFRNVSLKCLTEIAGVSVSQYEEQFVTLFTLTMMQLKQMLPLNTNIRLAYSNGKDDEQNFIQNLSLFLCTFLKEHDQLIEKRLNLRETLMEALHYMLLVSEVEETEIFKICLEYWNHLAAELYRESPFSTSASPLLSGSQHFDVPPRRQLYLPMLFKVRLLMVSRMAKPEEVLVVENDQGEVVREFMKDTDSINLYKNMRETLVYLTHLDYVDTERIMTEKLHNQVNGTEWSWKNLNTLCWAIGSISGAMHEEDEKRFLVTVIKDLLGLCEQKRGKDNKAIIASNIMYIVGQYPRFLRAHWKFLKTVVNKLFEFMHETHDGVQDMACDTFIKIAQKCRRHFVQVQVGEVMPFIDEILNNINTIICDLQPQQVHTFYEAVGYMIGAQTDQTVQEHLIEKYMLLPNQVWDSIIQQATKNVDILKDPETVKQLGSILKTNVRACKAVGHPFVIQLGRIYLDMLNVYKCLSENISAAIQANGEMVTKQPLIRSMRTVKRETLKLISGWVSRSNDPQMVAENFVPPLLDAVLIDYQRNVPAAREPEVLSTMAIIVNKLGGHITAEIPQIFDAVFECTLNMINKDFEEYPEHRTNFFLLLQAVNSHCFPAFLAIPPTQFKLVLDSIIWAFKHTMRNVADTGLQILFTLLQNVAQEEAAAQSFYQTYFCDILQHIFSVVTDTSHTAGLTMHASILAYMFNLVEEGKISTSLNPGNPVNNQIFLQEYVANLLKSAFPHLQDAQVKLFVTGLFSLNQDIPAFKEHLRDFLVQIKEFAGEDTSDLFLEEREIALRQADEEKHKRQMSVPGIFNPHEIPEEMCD", "UniProt Q8ND56": "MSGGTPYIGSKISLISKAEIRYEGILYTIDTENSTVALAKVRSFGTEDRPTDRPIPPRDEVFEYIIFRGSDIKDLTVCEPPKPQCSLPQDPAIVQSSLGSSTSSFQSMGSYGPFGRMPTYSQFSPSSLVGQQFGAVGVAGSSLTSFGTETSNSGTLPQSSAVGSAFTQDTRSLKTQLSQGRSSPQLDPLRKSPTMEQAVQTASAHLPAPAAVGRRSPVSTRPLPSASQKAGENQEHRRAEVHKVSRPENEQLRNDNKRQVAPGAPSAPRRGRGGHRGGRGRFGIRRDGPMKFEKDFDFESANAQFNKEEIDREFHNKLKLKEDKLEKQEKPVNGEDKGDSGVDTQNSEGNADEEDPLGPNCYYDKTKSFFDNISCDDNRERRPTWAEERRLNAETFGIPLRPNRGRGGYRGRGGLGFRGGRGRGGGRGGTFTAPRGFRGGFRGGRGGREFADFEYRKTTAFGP", "UniProt Q12888": "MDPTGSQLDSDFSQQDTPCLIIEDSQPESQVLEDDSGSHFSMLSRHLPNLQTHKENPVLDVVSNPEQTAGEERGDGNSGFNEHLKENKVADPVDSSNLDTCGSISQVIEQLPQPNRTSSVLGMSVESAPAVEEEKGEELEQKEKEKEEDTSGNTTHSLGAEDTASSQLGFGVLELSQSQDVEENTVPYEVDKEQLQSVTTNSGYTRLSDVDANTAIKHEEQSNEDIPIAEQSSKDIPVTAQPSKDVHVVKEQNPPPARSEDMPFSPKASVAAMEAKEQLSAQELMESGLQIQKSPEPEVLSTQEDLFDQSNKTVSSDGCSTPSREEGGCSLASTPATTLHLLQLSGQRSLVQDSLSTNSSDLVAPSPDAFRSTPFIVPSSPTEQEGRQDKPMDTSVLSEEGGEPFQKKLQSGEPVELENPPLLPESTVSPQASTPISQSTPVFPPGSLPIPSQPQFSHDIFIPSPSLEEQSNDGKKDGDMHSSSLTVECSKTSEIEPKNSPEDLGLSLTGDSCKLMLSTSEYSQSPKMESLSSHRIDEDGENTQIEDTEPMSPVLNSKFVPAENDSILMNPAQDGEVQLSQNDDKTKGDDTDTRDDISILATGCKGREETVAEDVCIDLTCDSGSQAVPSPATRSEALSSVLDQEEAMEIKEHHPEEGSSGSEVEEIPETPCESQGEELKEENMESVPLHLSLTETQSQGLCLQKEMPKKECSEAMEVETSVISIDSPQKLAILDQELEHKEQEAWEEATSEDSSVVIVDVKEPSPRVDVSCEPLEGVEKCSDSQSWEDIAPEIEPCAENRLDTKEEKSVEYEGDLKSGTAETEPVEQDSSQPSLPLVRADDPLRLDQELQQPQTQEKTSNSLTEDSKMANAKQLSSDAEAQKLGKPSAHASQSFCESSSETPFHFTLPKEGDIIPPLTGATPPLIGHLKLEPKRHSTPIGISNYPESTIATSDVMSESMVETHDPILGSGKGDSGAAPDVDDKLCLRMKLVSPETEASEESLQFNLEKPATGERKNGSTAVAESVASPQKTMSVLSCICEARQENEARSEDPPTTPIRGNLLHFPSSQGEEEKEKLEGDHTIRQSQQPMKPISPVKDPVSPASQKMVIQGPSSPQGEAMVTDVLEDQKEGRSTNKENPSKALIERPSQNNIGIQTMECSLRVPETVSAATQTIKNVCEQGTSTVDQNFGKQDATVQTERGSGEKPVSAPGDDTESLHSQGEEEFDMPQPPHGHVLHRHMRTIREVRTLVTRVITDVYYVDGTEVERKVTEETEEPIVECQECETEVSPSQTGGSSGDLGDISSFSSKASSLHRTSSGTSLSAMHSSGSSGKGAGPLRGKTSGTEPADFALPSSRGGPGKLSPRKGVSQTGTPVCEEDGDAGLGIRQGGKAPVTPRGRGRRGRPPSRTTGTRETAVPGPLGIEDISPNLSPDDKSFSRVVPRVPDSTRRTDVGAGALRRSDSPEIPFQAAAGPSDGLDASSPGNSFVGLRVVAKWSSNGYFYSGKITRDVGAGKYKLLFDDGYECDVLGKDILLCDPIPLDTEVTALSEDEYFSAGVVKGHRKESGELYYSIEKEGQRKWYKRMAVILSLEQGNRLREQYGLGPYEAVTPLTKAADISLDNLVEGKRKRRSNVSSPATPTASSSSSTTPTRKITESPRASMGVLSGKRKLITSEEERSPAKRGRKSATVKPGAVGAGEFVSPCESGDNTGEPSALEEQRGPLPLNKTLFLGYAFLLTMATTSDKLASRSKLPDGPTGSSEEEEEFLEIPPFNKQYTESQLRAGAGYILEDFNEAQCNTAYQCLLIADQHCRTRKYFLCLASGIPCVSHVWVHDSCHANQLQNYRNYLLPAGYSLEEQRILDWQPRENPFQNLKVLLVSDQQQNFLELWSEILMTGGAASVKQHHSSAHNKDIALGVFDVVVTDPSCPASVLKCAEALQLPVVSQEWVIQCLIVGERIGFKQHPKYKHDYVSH"}, "source": "paper PMC11551748", "key": {"[1]": {"molecular_target": "TIRR-GFP (doxycycline-induced overexpression, Flp-IN HeLa cells) (UniProt Q9BRJ7)", "assay": "co-IP; GFP-Trap magnetic beads on lysates of cells with doxycycline-induced TIRR-GFP or GFP only; damage and non-damage conditions; blot for XPO1"}, "[2]": {"molecular_target": "Tudor interacting repair regulator (TIRR), endogenous (human (endogenous in HeLa and U2OS)) (UniProt Q9BRJ7)", "assay": "proximity ligation; PLA with TIRR and XPO1 antibodies in cells with or without ETO or IR; single antibodies as negative control"}, "[3]": {"molecular_target": "T1, TIRR-GFP 53BP1 binding mutant (K10E) (UniProt Q9BRJ7)", "T1 sequence": "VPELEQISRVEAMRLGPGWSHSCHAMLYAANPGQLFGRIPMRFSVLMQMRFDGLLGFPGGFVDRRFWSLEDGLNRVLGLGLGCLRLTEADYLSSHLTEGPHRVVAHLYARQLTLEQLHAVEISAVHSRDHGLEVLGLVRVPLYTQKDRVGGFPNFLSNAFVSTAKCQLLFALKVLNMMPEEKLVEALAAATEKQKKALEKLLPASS", "assay": "co-IP; GFP-Trap magnetic beads on lysates of lentivirus-integrated stable U2OS cell lines (GFP, TIRR-GFP WT and mutants); WT with and without ETO, mutants with ETO; blots for XPO1 and 53BP1"}, "[4]": {"molecular_target": "TIRR-GFP WT (lentivirus-integrated, U2OS) (UniProt Q9BRJ7)", "assay": "co-IP; GFP-Trap magnetic beads on lysates of lentivirus-integrated stable U2OS cell lines (GFP, TIRR-GFP WT and mutants); WT with and without ETO, mutants with ETO; blots for XPO1 and 53BP1"}, "[5]": {"molecular_target": "TIRR-GFP WT (lentivirus-integrated, U2OS) (UniProt Q9BRJ7)", "assay": "proximity ligation; TIRR/XPO1 PLA in stable U2OS cell lines (WT TIRR-GFP or GFP alone) in a TIRR knock-down background"}, "[6]": {"molecular_target": "Flag-hCRM1 (FLAG-XPO1) (human) (UniProt O14980)", "assay": "co-IP; Anti-FLAG M2 magnetic beads on lysates of U2OS cells transiently transfected with XPO1-FLAG or mScarlet-FLAG; non-damage and damage conditions; blot for TIRR"}, "[7]": {"molecular_target": "Tudor interacting repair regulator (TIRR), endogenous (human (endogenous in HeLa and U2OS)) (UniProt Q9BRJ7)", "assay": "proximity ligation; PLA with antibodies against TIRR and LSM14A in HeLa and U2OS cells with or without ETO, and in HeLa cells with IR; single antibodies as negative controls"}, "[8]": {"molecular_target": "recombinant His-tagged TIRR (Tudor interacting repair regulator) (UniProt Q9BRJ7)", "assay": "pull-down; 1.5 ug His-TIRR on Ni-NTA magnetic agarose beads, 6 ug GST-tagged XPO1 added for 1 h at 4°C; 50 mM Tris pH 7.4, 150 mM NaCl, 5 mM MgCl2, 10% glycerol; eluted with 500 mM imidazole, western blot for GST and His; both purified"}}, "note": "No constants are given. Whether binding was seen depends on the method and setting. For part of these data: Binding seen in cells or lysates may run through a third protein. Some binding calls cover weakened binding; strength is not graded here. For part of these data: Where a sequence is shown, tags or fusion partners need not be part of it."}
{"substance": "Exportin-1 (XPO1), endogenous (from UniProt O14980 1-1071)", "values": [{"measurement": "binding", "setting": "[1]", "value": "binds"}, {"measurement": "binding", "setting": "[2]", "value": "binds"}, {"measurement": "binding", "setting": "[3]", "value": "binds"}, {"measurement": "binding", "setting": "[4]", "value": "binds"}, {"measurement": "binding", "setting": "[5]", "value": "binds"}]}
{"substance": "Tudor interacting repair regulator (TIRR), endogenous (from UniProt Q9BRJ7 1-211)", "values": [{"measurement": "binding", "setting": "[6]", "value": "binds"}]}
{"substance": "LSM14A, endogenous (from UniProt Q8ND56 1-463)", "values": [{"measurement": "binding", "setting": "[7]", "value": "binds"}]}
{"substance": "recombinant GST-tagged XPO1 (ab131897, Abcam) (from UniProt O14980 1-1071)", "values": [{"measurement": "binding", "setting": "[8]", "value": "binds"}]}
{"substance": "p53 binding protein 1 (53BP1), endogenous (from UniProt Q12888 1-1972)", "values": [{"measurement": "binding", "setting": "[4]", "value": "binds"}]}
